The list shows a part of the results.
Tests used:
Assay in all cases: log2 fold change, soluble protein after heating vs DMSO (PISA); higher = thermal stabilisation; K562 lysate, 10 uM; active = over 0.2 and 3.5 SD of the protein, either way, in both replicates (recomputed)
ibrutinib = compound: C=CC(=O)N1CCC[C@@H](n2nc(-c3ccc(Oc4ccccc4)cc3)c3c(N)ncnc32)C1 [ibrutinib]
In short: (§1)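 Soluble protein was defined as the supernatant remaining after 21,000xg for 90 min, following pooling of heated aliquots and adjustment to 0.5% NP-40 at 4°C. Before that, crude K562 extract at 1 mg/mL protein in PBS pH 7.4 with 1 mM MgCl2 was treated with 10 μM compound for 30 min and heated for 3 min across 48°C-58°C. Quantification used TMTpro 16plex LC-MS/MS with channel sums equalised, and values are log-two fold changes in thermal stability relative to solvent controls from duplicates.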

Chains of the proteins cited; added tags and fusions are not shown. Lines headed by an entry give the natural chain unless they say otherwise; changes in a name come on top.
UniProt O75352: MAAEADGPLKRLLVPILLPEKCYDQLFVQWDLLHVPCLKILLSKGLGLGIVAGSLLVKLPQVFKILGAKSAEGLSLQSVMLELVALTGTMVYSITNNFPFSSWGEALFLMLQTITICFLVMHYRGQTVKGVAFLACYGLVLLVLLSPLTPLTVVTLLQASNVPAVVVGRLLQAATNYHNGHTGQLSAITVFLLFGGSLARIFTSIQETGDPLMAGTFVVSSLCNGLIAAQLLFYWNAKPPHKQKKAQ
UniProt Q13015: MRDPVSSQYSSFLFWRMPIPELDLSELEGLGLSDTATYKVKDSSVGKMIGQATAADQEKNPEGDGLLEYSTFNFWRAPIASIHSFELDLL
UniProt Q567V2: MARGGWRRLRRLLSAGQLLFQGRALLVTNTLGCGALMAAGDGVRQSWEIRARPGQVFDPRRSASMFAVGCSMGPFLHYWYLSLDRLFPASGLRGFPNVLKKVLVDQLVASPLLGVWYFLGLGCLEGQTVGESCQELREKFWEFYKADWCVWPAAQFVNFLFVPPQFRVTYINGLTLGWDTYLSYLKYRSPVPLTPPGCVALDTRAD
UniProt Q8NHP6: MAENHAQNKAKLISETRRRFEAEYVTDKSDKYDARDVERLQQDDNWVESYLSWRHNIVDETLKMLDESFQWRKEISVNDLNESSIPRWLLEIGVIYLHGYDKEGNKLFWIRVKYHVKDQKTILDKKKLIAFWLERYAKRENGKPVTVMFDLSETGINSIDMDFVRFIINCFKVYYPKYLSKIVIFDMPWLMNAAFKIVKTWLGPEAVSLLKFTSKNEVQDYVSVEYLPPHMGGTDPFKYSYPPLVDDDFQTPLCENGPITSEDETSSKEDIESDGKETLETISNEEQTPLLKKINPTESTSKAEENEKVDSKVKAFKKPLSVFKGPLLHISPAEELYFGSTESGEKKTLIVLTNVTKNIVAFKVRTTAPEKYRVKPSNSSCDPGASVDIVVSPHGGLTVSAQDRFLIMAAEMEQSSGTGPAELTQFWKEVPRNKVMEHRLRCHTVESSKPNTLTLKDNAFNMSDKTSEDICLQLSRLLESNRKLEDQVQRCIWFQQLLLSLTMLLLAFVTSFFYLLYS
UniProt Q9H3L0: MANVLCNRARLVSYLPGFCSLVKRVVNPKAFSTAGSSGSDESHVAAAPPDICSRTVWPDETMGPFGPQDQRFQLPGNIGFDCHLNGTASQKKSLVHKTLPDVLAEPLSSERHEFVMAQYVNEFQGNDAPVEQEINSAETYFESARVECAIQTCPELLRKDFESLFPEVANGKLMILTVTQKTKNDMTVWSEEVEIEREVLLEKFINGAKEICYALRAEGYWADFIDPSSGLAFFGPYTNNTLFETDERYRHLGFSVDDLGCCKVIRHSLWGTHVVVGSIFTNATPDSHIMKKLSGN
UniProt Q9NQG6: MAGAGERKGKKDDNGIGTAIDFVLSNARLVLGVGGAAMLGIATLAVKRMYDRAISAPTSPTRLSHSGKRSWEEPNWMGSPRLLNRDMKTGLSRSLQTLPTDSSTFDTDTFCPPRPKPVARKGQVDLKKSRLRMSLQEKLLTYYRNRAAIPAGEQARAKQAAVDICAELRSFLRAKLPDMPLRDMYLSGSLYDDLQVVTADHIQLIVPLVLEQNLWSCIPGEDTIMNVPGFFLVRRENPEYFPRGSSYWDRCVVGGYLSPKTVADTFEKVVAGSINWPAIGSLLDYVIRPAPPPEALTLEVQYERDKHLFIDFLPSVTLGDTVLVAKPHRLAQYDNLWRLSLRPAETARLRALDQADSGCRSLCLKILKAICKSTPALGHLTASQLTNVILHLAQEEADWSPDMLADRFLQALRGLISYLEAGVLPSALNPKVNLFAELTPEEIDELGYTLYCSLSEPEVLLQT
UniProt Q09328: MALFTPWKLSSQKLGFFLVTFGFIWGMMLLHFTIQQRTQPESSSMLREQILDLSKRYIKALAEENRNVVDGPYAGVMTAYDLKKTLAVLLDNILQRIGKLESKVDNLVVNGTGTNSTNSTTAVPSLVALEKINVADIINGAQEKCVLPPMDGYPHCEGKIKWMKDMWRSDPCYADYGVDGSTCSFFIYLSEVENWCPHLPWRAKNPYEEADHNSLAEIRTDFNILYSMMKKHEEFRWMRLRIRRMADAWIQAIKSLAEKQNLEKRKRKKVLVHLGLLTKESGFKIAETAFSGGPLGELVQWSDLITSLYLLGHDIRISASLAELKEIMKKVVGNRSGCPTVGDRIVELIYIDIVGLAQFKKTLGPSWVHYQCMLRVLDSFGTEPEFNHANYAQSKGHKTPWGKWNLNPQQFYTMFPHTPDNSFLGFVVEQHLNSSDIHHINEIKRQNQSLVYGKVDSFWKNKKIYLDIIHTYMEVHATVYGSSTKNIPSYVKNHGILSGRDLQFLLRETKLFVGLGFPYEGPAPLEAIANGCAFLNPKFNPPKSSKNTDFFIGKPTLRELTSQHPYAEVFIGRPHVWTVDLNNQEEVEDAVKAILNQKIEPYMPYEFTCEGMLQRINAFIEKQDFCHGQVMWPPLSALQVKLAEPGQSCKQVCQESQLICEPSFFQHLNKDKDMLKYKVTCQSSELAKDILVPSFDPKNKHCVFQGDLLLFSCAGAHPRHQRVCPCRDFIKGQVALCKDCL
UniProt Q5XKP0: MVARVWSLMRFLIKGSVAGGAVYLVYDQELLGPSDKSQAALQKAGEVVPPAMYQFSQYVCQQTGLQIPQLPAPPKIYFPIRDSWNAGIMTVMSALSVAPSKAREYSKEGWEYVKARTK
UniProt Q70IA6: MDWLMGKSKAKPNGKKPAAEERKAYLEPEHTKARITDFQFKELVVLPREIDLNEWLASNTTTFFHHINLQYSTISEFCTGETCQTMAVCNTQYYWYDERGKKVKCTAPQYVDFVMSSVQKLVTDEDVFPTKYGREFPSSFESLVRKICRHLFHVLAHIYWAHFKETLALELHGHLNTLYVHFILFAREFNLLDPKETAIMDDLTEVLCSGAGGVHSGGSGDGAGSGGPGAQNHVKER
UniProt Q7RTP6, whole entry, looked up: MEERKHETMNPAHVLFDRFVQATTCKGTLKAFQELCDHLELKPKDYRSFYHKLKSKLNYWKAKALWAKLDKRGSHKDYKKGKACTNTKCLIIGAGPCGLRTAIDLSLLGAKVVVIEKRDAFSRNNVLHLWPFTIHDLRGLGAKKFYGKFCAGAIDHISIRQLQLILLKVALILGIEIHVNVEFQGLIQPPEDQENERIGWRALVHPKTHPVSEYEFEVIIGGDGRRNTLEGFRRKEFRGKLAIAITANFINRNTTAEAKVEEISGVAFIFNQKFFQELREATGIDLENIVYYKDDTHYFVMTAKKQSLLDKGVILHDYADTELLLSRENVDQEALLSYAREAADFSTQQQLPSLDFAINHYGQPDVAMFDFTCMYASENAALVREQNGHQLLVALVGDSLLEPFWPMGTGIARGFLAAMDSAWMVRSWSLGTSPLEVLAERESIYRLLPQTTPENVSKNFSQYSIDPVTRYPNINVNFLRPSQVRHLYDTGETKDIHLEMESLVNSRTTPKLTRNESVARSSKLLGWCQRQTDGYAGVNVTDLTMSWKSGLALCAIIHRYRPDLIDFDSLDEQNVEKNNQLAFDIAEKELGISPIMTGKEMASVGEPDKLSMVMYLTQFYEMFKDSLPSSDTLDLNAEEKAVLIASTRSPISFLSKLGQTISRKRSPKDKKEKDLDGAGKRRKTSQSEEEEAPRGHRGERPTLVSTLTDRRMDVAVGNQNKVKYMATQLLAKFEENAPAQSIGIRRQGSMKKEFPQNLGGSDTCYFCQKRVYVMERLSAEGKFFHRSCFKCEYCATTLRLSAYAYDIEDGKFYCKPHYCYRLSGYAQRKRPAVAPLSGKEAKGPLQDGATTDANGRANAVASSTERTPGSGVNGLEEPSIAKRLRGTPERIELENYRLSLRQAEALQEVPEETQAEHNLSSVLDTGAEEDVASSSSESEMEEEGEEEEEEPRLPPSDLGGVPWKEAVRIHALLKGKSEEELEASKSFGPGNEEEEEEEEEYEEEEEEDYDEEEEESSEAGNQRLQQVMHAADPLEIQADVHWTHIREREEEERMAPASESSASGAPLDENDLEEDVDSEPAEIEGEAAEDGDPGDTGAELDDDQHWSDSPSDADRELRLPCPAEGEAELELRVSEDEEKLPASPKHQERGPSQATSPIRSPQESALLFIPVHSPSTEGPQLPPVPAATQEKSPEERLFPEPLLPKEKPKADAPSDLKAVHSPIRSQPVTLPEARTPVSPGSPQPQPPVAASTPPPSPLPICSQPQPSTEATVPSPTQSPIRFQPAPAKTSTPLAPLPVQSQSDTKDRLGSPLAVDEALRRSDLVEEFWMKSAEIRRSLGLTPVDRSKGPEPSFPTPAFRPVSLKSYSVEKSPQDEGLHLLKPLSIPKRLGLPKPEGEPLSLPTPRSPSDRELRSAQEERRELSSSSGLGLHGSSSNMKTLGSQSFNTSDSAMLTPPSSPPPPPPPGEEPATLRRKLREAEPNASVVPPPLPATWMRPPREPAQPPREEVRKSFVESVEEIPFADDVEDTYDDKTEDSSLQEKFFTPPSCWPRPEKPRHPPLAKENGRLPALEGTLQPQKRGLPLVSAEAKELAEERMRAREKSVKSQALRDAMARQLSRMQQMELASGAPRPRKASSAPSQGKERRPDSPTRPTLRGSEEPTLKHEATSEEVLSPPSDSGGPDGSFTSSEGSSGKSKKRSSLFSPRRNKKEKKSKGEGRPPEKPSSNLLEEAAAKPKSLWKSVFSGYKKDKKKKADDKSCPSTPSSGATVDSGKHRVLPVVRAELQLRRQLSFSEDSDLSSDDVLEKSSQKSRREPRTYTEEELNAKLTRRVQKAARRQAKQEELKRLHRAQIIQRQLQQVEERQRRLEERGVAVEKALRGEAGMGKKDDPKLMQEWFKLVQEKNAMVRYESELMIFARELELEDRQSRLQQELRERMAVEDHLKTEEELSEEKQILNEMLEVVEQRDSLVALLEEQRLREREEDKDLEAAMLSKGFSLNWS
UniProt Q8N4C8: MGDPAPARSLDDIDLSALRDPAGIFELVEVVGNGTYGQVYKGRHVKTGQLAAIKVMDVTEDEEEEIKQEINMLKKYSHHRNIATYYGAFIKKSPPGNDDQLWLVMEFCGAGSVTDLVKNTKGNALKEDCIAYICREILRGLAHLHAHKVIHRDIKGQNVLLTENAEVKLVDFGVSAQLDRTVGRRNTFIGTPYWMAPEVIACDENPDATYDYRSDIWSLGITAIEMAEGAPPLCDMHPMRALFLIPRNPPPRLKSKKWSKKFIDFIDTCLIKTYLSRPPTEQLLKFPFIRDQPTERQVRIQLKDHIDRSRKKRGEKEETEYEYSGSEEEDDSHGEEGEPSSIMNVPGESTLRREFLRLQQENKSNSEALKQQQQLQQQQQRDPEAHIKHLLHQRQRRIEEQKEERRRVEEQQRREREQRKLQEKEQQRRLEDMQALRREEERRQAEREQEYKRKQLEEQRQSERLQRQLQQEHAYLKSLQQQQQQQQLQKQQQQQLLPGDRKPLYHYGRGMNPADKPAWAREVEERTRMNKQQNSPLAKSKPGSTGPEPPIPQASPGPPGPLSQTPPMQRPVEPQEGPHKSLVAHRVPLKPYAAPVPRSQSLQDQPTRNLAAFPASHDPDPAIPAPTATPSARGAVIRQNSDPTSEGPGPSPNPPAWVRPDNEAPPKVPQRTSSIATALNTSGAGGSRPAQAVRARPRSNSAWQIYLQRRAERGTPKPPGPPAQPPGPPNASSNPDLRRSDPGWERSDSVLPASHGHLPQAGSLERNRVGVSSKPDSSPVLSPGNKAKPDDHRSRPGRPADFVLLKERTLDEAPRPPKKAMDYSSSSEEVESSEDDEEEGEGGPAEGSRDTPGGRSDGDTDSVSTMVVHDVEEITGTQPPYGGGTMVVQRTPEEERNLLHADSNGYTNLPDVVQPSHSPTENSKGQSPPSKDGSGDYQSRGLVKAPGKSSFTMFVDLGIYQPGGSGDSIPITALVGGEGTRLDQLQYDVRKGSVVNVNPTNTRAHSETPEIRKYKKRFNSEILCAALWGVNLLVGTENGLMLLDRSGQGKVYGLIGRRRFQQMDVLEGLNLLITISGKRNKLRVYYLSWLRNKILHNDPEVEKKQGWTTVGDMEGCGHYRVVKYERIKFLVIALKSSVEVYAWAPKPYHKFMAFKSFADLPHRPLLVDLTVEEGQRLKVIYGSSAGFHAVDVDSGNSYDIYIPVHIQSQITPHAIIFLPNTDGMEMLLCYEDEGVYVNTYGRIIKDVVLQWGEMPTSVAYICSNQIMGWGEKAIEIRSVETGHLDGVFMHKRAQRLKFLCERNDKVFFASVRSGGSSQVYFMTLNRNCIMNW
UniProt P14174: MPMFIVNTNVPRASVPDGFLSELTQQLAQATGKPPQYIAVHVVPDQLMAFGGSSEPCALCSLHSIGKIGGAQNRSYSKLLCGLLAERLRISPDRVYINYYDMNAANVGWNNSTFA
UniProt Q96BX8: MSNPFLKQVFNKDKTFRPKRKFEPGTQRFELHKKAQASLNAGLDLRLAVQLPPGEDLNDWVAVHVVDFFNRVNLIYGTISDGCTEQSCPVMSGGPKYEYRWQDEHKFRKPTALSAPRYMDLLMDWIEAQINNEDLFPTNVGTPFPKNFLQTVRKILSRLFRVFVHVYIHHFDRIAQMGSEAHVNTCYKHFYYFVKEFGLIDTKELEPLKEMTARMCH

[1] = compound: CC(=O)c1cnc2ccc(-c3cc(Cl)c(O)c(Cl)c3)nc2c1N[C@H]1CC[C@H](CN(C)C)CC1
In short: as §1

ralimetinib = compound: CC(C)(C)Cn1c(N)nc2ccc(-c3[nH]c(C(C)(C)C)nc3-c3ccc(F)cc3)nc21 [ralimetinib]
In short: as §1

[2] = compound: CC(C)(O)CC(=O)NCCn1ccc2ncnc(Nc3ccc(Oc4cccc(C(F)(F)F)c4)c(Cl)c3)c21
In short: as §1

[3] = compound: CC(C)C1=C2N=C(C=C(N2N=C1)NCC3=CC=CC=C3)NCCCCCCN
In short: as §1

[4] = compound: CC1=C(C(CC(=O)N1)C2=CC=C(C=C2)C(F)(F)F)C(=O)NC3=C(C=C4C(=C3)C=NN4)F
In short: as §1

[5] = compound: CC1=C(C2=C(C=C1)C(=O)C3=CC=CC=C3N2CCCN)C
In short: as §1

[6] = compound: CC1=C(C=C(C=C1)NC(=O)C2=CC(=CC=C2)C(C)(C)C#N)NC3=CC4=C(C=C3)N=CN(C4=O)C
In short: as §1

[7] = compound: CC1=C(C=C(C=C1)NC(=O)C2=CC(=CC=C2)N(C)C)NC(=O)C3=CC=C(C=C3)O
In short: as §1

[8] = compound: CC1=CC=C(C=C1)SC2=C3C=C(SC3=CN=C2)C(=O)N
In short: as §1

vemurafenib = compound: CCCS(=O)(=O)Nc1ccc(F)c(C(=O)c2c[nH]c3ncc(-c4ccc(Cl)cc4)cc23)c1F [vemurafenib]
In short: as §1

[9] = compound: CCCS(=O)(=O)Nc1ccc(F)c(C(=O)c2c[nH]c3ncc(Cl)cc23)c1F
In short: as §1

barasertib = compound: CCN(CCCOc1ccc2c(Nc3cc(CC(=O)Nc4cccc(F)c4)[nH]n3)ncnc2c1)CCOP(=O)(O)O [barasertib]
In short: as §1

[10] = compound: CC[C@@H]1C(=O)N(C)c2cnc(Nc3ccc(C(=O)NC4CCN(C)CC4)cc3OC)nc2N1C1CCCC1
In short: as §1

volasertib = compound: CC[C@@H]1C(=O)N(C)c2cnc(Nc3ccc(C(=O)N[C@H]4CC[C@H](N5CCN(CC6CC6)CC5)CC4)cc3OC)nc2N1C(C)C [volasertib]
In short: as §1

[11] = compound: CCn1c(C(=O)N(C2CC2)C2CC2)cc2c3c(ncn3C)c(Nc3cc(C)n(C)n3)nc21
In short: as §1

[12] = compound: CCn1cc(-c2ccnc3[nH]c(-c4cccc(CN(C)C)c4)cc23)c(-c2ccc(NC(=O)N(C)C)cc2)n1
In short: as §1

[13] = compound: CN1CCC(CNc2ccc3ncc(-c4cccc(OC(F)(F)F)c4)n3n2)CC1
In short: as §1

saracatinib = compound: CN1CCN(CCOc2cc(OC3CCOCC3)c3c(Nc4c(Cl)ccc5c4OCO5)ncnc3c2)CC1 [saracatinib]
In short: as §1

sotrastaurin = compound: CN1CCN(c2nc(C3=C(c4c[nH]c5ccccc45)C(=O)NC3=O)c3ccccc3n2)CC1 [sotrastaurin]
In short: as §1

Measured: log2 fold change

MPDU1 (UniProt O75352)
inactive: ibrutinib -0.099 | [1] -0.002 | ralimetinib 0.028 | [2] -0.034 | [3] -0.03 | [4] 0.086 | [5] -0.055 | [6] 0.038 | [7] -0.019 | [8] 0.048 | vemurafenib 0.094 | [9] 0.004 | barasertib 0.091 | [10] 0.013 | volasertib 0.047 | [11] -0.003 | [12] -0.08 | [13] 0.126 | saracatinib -0.028 | sotrastaurin 0.013

MLLT11 (UniProt Q13015)
inactive: ibrutinib -0.057 | [1] 0.077 | ralimetinib 0.032 | [2] -0.116 | [3] 0.164 | [4] 0.174 | [5] -0.037 | [6] 0.326 | [7] -0.008 | [8] 0.055 | vemurafenib -0.054 | [9] -0.048 | barasertib 0.143 | [10] -0.199 | volasertib 0.1 | [11] 0.05 | [12] -0.01 | [13] -0.049 | saracatinib 0.118 | sotrastaurin -0.04

MPV17L2 (UniProt Q567V2)
inactive: ibrutinib -0.032 | [1] -0.033 | ralimetinib -0.009 | [2] -0.062 | [3] -0.023 | [4] 0.009 | [5] -0.006 | [6] 0.027 | [7] -0.045 | [8] 0.013 | vemurafenib 0.013 | [9] -0.027 | barasertib 0.016 | [10] 0.045 | volasertib 0.103 | [11] 0.154 | [12] -0.068 | [13] 0.019 | saracatinib -0.011 | sotrastaurin 0.1

MOSPD2 (UniProt Q8NHP6)
inactive: ibrutinib -0.023 | [1] 0.019 | ralimetinib 0.023 | [2] 0.067 | [3] 0.028 | [4] -0.049 | [5] 0.009 | [6] -0.037 | [7] -0.012 | [8] 0.017 | vemurafenib 0.003 | [9] 0.008 | barasertib -0.007 | [10] 0.158 | volasertib -0.014 | [11] 0.039 | [12] -0.054 | [13] 0.004 | saracatinib 0.043 | sotrastaurin 0.076

MMADHC (UniProt Q9H3L0)
inactive: ibrutinib 0.007 | [1] -0.004 | ralimetinib -0.017 | [2] -0.036 | [3] 0.048 | [4] 0.013 | [5] -0.037 | [6] 0.027 | [7] -0.008 | [8] -0.031 | vemurafenib 0.077 | [9] 0.06 | barasertib 0.017 | [10] 0.039 | volasertib 0.005 | [11] -0.037 | [12] 0.057 | [13] -0.01 | saracatinib 0.022 | sotrastaurin -0.064

MIEF1 (UniProt Q9NQG6)
inactive: ibrutinib 0.068 | [1] 0.019 | ralimetinib -0.002 | [2] -0.055 | [3] 0.036 | [4] 0.012 | [5] -0.012 | [6] -0.006 | [7] 0.052 | [8] 0.009 | vemurafenib -0.012 | [9] -0.012 | barasertib 0.082 | [10] -0.031 | volasertib -0.072 | [11] -0.021 | [12] 0.003 | [13] -0.165 | saracatinib 0.076 | sotrastaurin -0.004

MGAT5 (UniProt Q09328)
inactive: ibrutinib 0.038 | [1] 0.014 | ralimetinib 0.001 | [2] 0.039 | [3] -0.045 | [4] -0.084 | [5] 0.005 | [6] -0.002 | [7] -0.004 | [8] 0.014 | vemurafenib -0.254 | [9] -0.07 | barasertib 0.062 | [10] -0.08 | volasertib -0.065 | [11] 0.021 | [12] 0.094 | [13] -0.138 | saracatinib -0.036 | sotrastaurin 0.002

MICOS13 (UniProt Q5XKP0)
inactive: ibrutinib -0.083 | [1] -0.002 | ralimetinib 0.091 | [2] -0.139 | [3] -0.1 | [4] 0.047 | [5] -0.001 | [6] 0.055 | [7] 0.136 | [8] 0.019 | vemurafenib 0.073 | [9] -0.005 | barasertib 0.032 | [10] 0.009 | volasertib 0.018 | [11] 0.021 | [12] -0.002 | [13] -0.086 | saracatinib -0.028 | sotrastaurin -0.085

MOB2 isoform 3 (UniProt Q70IA6)
inactive: ibrutinib -0.034 | [1] -0.098 | ralimetinib 0.011 | [2] -0.02 | [3] -0.007 | [4] 0.013 | [5] 0.054 | [6] 0.018 | [7] -0.009 | [8] -0.02 | vemurafenib 0.047 | [9] -0.004 | barasertib 0.123 | [10] 0.04 | volasertib -0.05 | [11] -0.013 | [12] 0.074 | [13] -0.062 | saracatinib 0.08 | sotrastaurin 0.066

MON1A (UniProt Q86VX9)
inactive: ibrutinib 0.013 | [1] 0.036 | ralimetinib 0.089 | [2] -0.142 | [3] -0.024 | [4] 0.052 | [5] -0.045 | [6] -0.044 | [7] -0.027 | [8] 0.032 | vemurafenib 0.022 | [9] 0.029 | barasertib 0.008 | [10] 0.013 | volasertib -0.072 | [11] 0.007 | [12] -0.234 | [13] 0.119 | saracatinib 0.012 | sotrastaurin -0.036

MICAL3 (UniProt Q7RTP6)
inactive: ibrutinib 0.039 | [1] 0.008 | ralimetinib -0.014 | [2] -0.032 | [3] 0.003 | [4] 0 | [5] -0.043 | [6] 0 | [7] 0.036 | [8] -0.024 | vemurafenib 0.037 | [9] 0.018 | barasertib 0.06 | [10] 0.042 | volasertib -0.003 | [11] -0.013 | [12] -0.002 | [13] 0.027 | saracatinib -0.002 | sotrastaurin 0.014

MOB3B (UniProt Q86TA1)
inactive: ibrutinib 0 | [1] 0.023 | ralimetinib -0.011 | [2] -0.03 | [3] 0.023 | [4] -0.107 | [5] -0.038 | [6] 0.009 | [7] -0.001 | [8] -0.024 | vemurafenib 0.016 | [9] 0.004 | barasertib 0.054 | [10] 0.098 | volasertib -0.015 | [11] -0.071 | [12] 0.161 | [13] -0.082 | saracatinib 0.007 | sotrastaurin 0.006

MINK1 (UniProt Q8N4C8)
inactive: ibrutinib -0.003 | [1] 0.013 | ralimetinib 0.042 | [2] -0.051 | [3] 0.119 | [4] -0.144 | [5] -0.03 | [6] -0.008 | [7] 0.013 | [8] 0.021 | vemurafenib -0.096 | [9] -0.107 | barasertib -0.017 | [10] -0.012 | volasertib 0.022 | [11] 0.076 | [12] -0.033 | [13] -0.09 | saracatinib 0.007 | sotrastaurin 0.079

MIF (UniProt P14174)
inactive: ibrutinib 0.101 | [1] -0.057 | ralimetinib -0.002 | [2] 0.01 | [3] 0.003 | [4] -0.095 | [5] 0.009 | [6] -0.004 | [7] -0.019 | [8] 0.049 | vemurafenib 0.025 | [9] -0.047 | barasertib -0.02 | [10] 0 | volasertib -0.025 | [11] 0.021 | [12] -0.274 | [13] 0.084 | saracatinib 0.002 | sotrastaurin 0.002

MPLKIP (UniProt Q8TAP9)
inactive: ibrutinib 0.006 | [1] 0.033 | ralimetinib 0.013 | [2] -0.009 | [3] -0.056 | [4] 0.064 | [5] 0.045 | [6] 0.034 | [7] -0.023 | [8] 0.018 | vemurafenib 0.004 | [9] -0.037 | barasertib -0.206 | [10] -0.028 | volasertib 0.128 | [11] -0.01 | [12] -0.213 | [13] 0.183 | saracatinib -0.019 | sotrastaurin 0.009

MOB3A (UniProt Q96BX8)
inactive: ibrutinib 0.044 | [1] 0.031 | ralimetinib 0.018 | [2] -0.01 | [3] 0.006 | [4] 0.045 | [5] 0.018 | [6] -0.026 | [7] 0.001 | [8] 0.006 | vemurafenib 0.097 | [9] 0.043 | barasertib -0.01 | [10] 0.026 | volasertib 0.013 | [11] 0.02 | [12] -0.139 | [13] -0.072 | saracatinib -0.044 | sotrastaurin 0

From the supplement of paper PMC10849652
